PubChem BioAssay AID504764, Drosophila RNAi Screening Center | 2011

Assay: 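Knock-downs that raise or lower a Notch target reporter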 (primary screen)
Cells: Drosophila Kc167 cells
Reagents: long dsRNA against Drosophila genes
Duration: about 5 days (4 days dsRNA, then 24 h after transfection)
Conditions: transfection of constitutively active membrane-tethered Notch lacking the extracellular domain, read 24 h later
Measurement: 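Light from a Notch-responsive E(spl)m3 luciferase reporter under active Notch, with control-promoter and no-Notch reporter wells to normalise; raw counts from paired wells a and b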
Direction: induced reporter light, run 1, well a and induced reporter light, run 1, well b: higher = more light from the Notch target reporter with active Notch; control promoter light, run 1, well a and control promoter light, run 1, well b: higher = more light from the viral control promoter (cell number, transfection, viability); uninduced reporter light, run 1, well a: higher = more light from the Notch target reporter without active Notch
Rule for the call: 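Wells with low control signal or poorly matching duplicates excluded; duplicates averaged; per source plate, z beyond ±2 for induced/control log2 ratio or beyond ±1.8 for induced/uninduced marks a hit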
Calls: active = modifier hit (raised or lowered Notch signal); inactive = not a hit
The deposit covers about 22,000 reagents; shown is a random part of those with a known target gene and a result. Of all reagents, 403 (1.9%) are marked active. 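Unnormalised raw counts per well; ratio z-scores behind the hit calls and whether each hit raises or lowers signal are not deposited.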 Unmarked entries are inactive. Names joined by + are all predicted targets of the reagent. Reagent sequences are not shown. The record does not give: the amount of reagent.

| Gene | amplicon | induced reporter light, run 1, well a | induced reporter light, run 1, well b | control promoter light, run 1, well a | control promoter light, run 1, well b | uninduced reporter light, run 1, well a |
| --- | --- | --- | --- | --- | --- | --- |
| CG32246 | DRSC08115 | 1.64e5 | 1.60e5 | 1.86e5 | 1.68e5 | 10400 |
| Ctr1A | DRSC18336 | 1.57e5 | 1.34e5 | 2.53e5 | 2.34e5 | 8925 |
| GstS1 | DRSC07436 | 70125 | 1.14e5 | 1.48e5 | 2.29e5 | 10315 |
| CG13847 | DRSC14697 | 10955 | 10840 | 9870 | 10695 | 6950 |
| Abca3 | DRSC20546 | 78370 | 83195 | 89245 | 98610 | 9470 |
| mRpL16 | DRSC18550 | 2.26e5 | 2.17e5 | 2.82e5 | 2.94e5 | 15945 |
| upSET | DRSC11051 | 17165 | 15935 | 7815 | 7695 | 6865 |
| mon2 | DRSC03112 | 1.78e5 | 2.08e5 | 1.01e5 | 1.46e5 | 23270 |
| CG5608 | DRSC15841 | 1.77e5 | 1.21e5 | 90690 | 1.02e5 | 10030 |
| Actn3 | DRSC14106 | 2.55e5 | 3.05e5 | 2.92e5 | 2.76e5 | 20370 |
| l(2)37Cb | DRSC02095 | 1.43e5 | 1.73e5 | 1.54e5 | 1.51e5 | 9515 |
| Atg16 | DRSC15052 | 1.83e5 | 1.86e5 | 2.95e5 | 2.61e5 | 10505 |
| Atg16 | DRSC15300 | 1.49e5 | 1.18e5 | 1.76e5 | 1.87e5 | 11920 |
| Atg16 | DRSC15375 | 1.30e5 | 1.24e5 | 1.86e5 | 1.80e5 | 11445 |
| bark | DRSC00635 | 1.01e5 | 84500 | 95560 | 1.00e5 | 5780 |

Only “control promoter light, run 1, well a”, for 3 of the entries above:
Atg16 [DRSC15052] = 2.95e5
Atg16 [DRSC15300] = 1.76e5
Atg16 [DRSC15375] = 1.86e5

More reagents follow.
| Gene | amplicon | induced reporter light, run 1, well a | induced reporter light, run 1, well b | control promoter light, run 1, well a | control promoter light, run 1, well b | uninduced reporter light, run 1, well a |
| --- | --- | --- | --- | --- | --- | --- |
| dah | DRSC20320 | 1.17e5 | 1.12e5 | 1.33e5 | 1.23e5 | 7705 |
| yellow-f2 | DRSC16372 | 2.05e5 | 1.47e5 | 1.30e5 | 1.63e5 | 11820 |
| CG32590 | DRSC19594 | 78010 | 82930 | 1.02e5 | 1.20e5 | 12145 |
| dnr1 | DRSC03948 | 1.14e5 | 89335 | 1.01e5 | 1.13e5 | 10320 |
| dnr1 | DRSC04122 | 1.32e5 | 1.27e5 | 1.09e5 | 93590 | 9990 |
| CG12024 | DRSC08229 | 93150 | 99370 | 1.63e5 | 1.67e5 | 9355 |
| Cipc | DRSC14898 | 1.71e5 | 1.72e5 | 2.57e5 | 2.42e5 | 14295 |
| Cipc | DRSC14900 | 1.62e5 | 1.40e5 | 1.90e5 | 1.92e5 | 12055 |
| Kul | DRSC15404 | 1.28e5 | 1.18e5 | 1.59e5 | 1.71e5 | 10785 |
| CG9920 | DRSC16578 | 2.32e5 | 2.29e5 | 1.78e5 | 2.00e5 | 17242 |
| maca | DRSC15738 | 2.08e5 | 2.19e5 | 2.36e5 | 2.27e5 | 15175 |
| Pdss2 | DRSC11625 | 1.11e5 | 1.42e5 | 71530 | 71470 | 8170 |
| mmm | DRSC10208 | 2.30e5 | 2.39e5 | 3.10e5 | 3.27e5 | 17240 |
| CG14915 | DRSC02399 | 95900 | 1.22e5 | 62860 | 75270 | 16080 |
| Vml | DRSC17695 | 62560 | 75610 | 88485 | 79690 | 5920 |
| Vml | DRSC18529 | 1.03e5 | 1.09e5 | 1.74e5 | 1.92e5 | 8465 |
| CG13856 | DRSC14706 | 1.49e5 | 1.55e5 | 1.72e5 | 1.75e5 | 12925 |
| CG42568 + DnaJ-60 | DRSC04207 | 2.20e5 | 2.29e5 | 1.99e5 | 1.72e5 | 14725 |
| CG42568 + DnaJ-60 | DRSC04611 | 1.87e5 | 1.80e5 | 1.53e5 | 1.42e5 | 12355 |
